Measured values published in patent US9611303B2, “Modified biotin-binding protein” (Japan Tobacco Inc., priority 2009, dated 2017).

How the values were obtained:
[1] = Purification of LATM2 with 2-iminobiotin-agarose; assay type: binding
Method: LATM2 was purified through a column charged with 2-iminobiotin-agarose (manufactured by Sigma-Aldrich Corp.) in accordance with the method by Hofmann, et al., (1980). IPTG was added to 25 mL of a culture solution of E. coli transformed with each LATM2 in a final concentration of 1 mM to induce expression. The E. coli cells were collected by centrifugation, suspended in 1.5 mL of 50 mM CAPS (pH 12) containing 50 mM NaCl, and then sonicated. To the supernatant of the disrupted cells, 500 μL of 2-iminobiotin-agarose was added, which was then packed in a column. The column was sufficiently washed with 50 mM CAPS (pH 12) containing 500 mM NaCl, and elution was then performed with 50 mM NH4OAC (pH 4).
(§1) The recovery rate in Table 2 was calculated by dividing the amount of LATM2 protein after purification by the amount of LATM2 protein before purification and was expressed by percent by multiplying the quotient by 100. The degree of purification was the ratio of the amount of LATM2 protein to the total amount of proteins in the purified fraction and was expressed by percent by multiplying the ratio by 100. The recovery rates and the degrees of purification in biotin-agarose were the results after binding at pH 7 and elution with an excess amount of biotin.

[2] = Purification of LATM2 with biotin-agarose; assay type: binding; details: for Degree of purification (%): Biotin-agarose, binding at pH 7, recovery with 10 mM biotin
Method: Purification with biotin-agarose (manufactured by Sigma-Aldrich Corp.) was performed by the following procedure. After induced expression of 25 mL of a culture solution of E. coli for each LATM2, the E. coli cells were suspended in 1.5 mL of a 100 mM potassium phosphate buffer (pH 7.0), and then sonicated. To the supernatant of the disrupted cells. 400 μL of biotin-agarose was added, which was followed by upside-down mixing for 1 hr. […]
In TM2 S36A-T78A-D116A, the E. coli cells were suspended in 1.5 mL of 50 mM CAPS (pH 12) containing 50 mM NaCl, and then sonicated. To the disrupted cells, 400 μL of biotin-agarose was added, which was followed by upside-down mixing for 1 hr. The column was sufficiently washed with 50 mM CAPS (pH 12) containing 500 mM NaCl, and elution was then performed with 1 mL of PBS (pH 7.4) containing 10 mM biotin.
In TM2 S36A-D116A, the E. coli cells were suspended in 1.5 mL of a 100 mM potassium phosphate buffer (pH 4.0), and then sonicated. To the pupernatant of the disrupted cells, 400 μL of biotin-agarose was added. Washing was performed with a 100 mM potassium phosphate buffer (pH 4) containing 500 mM NaCl, and elution was performed with 1 mL of PBS (pH 7) containing 10 mM biotin. Biotin binding to LATM2 that has been eluted with an excess amount of biotin was removed by dialysis with a 20 mM potassium phosphate buffer overnight.
as §1

| Molecule | Degree of purification (%) [1] | Degree of purification (%) [2] | degree of purification ([2]; after binding at pH 4 and then dissociating at pH 7) |
| --- | --- | --- | --- |
| TM2 S36A-D116A: TM2 with 36th serine and 116th aspartic acid replaced with alanine; SEQ ID NO: 20 (protein, Synthetic TM2 S36A-D116A) MSDVQSSLTGTWYNELNSKMELTANKDGTLTGKYLAKVGDVYVPYPLSGRYNLQPPAGQGVALGWAVSWENSKIHSATTWSGQFFSESSPVILTQWLLSSSTARGDVWESTLVGNASFTKTAPTEQQIAHAQLHCRAPRLK | 0% | 0% | 95% |
| TM2 W80K: TM2 in which the 80th tryptophan was replaced with lysine; amino acid sequence SEQ ID NO: 4 (protein, Synthetic TM2 W80K) MSDVQSSLTGTWYNELNSKMELTANKDGTLTGKYLSKVGDVYVPYPLSGRYNLQPPAGQGVALGWAVSWENSKIHSATTKSGQFFSESSPVILTQWLLSSSTARGDVWESTLVGNDSFTKTAPTEQQIAHAQLHCRAPRLK | 95% | 95% |  |
| WT-TM2: wild-type tamavidin 2, protein comprising the amino acid sequence SEQ ID NO: 2, from Pleurotus cornucopiae (protein, listed as Pleurotus cornucopiae) MSDVQSSLTGTWYNELNSKMELTANKDGTLTGKYLSKVGDVYVPYPLSGRYNLQPPAGQGVALGWAVSWENSKIHSATTWSGQFFSESSPVILTQWLLSSSTARGDVWESTLVGNDSFTKTAPTEQQIAHAQLHCRAPRLK | 95% | 0% |  |
| TM2 T78A-D116A: TM2 with 78th threonine and 116th aspartic acid replaced with alanine; SEQ ID NO: 22 (protein, Synthetic TM2 T78A-D116A) MSDVQSSLTGTWYNELNSKMELTANKDGTLTGKYLSKVGDVYVPYPLSGRYNLQPPAGQGVALGWAVSWENSKIHSAATWSGQFFSESSPVILTQWLLSSSTARGDVWESTLVGNASFTKTAPTEQQIAHAQLHCRAPRLK | 0% | 95% |  |
| TM2 A66R-V113R: TM2 with 66th alanine and 113th valine replaced with arginine (protein) MSDVQSSLTGTWYNELNSKMELTANKDGTLTGKYLSKVGDVYVPYPLSGRYNLQPPAGQGVALGWRVSWENSKIHSATTWSGQFFSESSPVILTQWLLSSSTARGDVWESTLRGNDSFTKTAPTEQQIAHAQLHCRAPRLK | 0% | 0% |  |
| TM2 W108K: TM2 in which the 108th tryptophan was replaced with lysine (protein) MSDVQSSLTGTWYNELNSKMELTANKDGTLTGKYLSKVGDVYVPYPLSGRYNLQPPAGQGVALGWAVSWENSKIHSATTWSGQFFSESSPVILTQWLLSSSTARGDVKESTLVGNDSFTKTAPTEQQIAHAQLHCRAPRLK | 95% | 95% |  |
| TM2 S36A: TM2 in which the 36th serine was replaced with alanine; SEQ ID NO: 6 (protein, Synthetic TM2 S36A) MSDVQSSLTGTWYNELNSKMELTANKDGTLTGKYLAKVGDVYVPYPLSGRYNLQPPAGQGVALGWAVSWENSKIHSATTWSGQFFSESSPVILTQWLLSSSTARGDVWESTLVGNDSFTKTAPTEQQIAHAQLHCRAPRLK | 95% | 95% |  |
| TM2 N14A: TM2 in which the 14th asparagine was replaced with alanine (protein) MSDVQSSLTGTWYAELNSKMELTANKDGTLTGKYLSKVGDVYVPYPLSGRYNLQPPAGQGVALGWAVSWENSKIHSATTWSGQFFSESSPVILTQWLLSSSTARGDVWESTLVGNDSFTKTAPTEQQIAHAQLHCRAPRLK | 95% | 95% |  |
| TM2 W69K: TM2 in which the 69th tryptophan was replaced with lysine (protein) MSDVQSSLTGTWYNELNSKMELTANKDGTLTGKYLSKVGDVYVPYPLSGRYNLQPPAGQGVALGWAVSKENSKIHSATTWSGQFFSESSPVILTQWLLSSSTARGDVWESTLVGNDSFTKTAPTEQQIAHAQLHCRAPRLK | 95% | 95% |  |
| TM2 A66R-L97T: TM2 double mutant A66R and L97T; not in the list of 30 forms, vector named in b302 (protein) MSDVQSSLTGTWYNELNSKMELTANKDGTLTGKYLSKVGDVYVPYPLSGRYNLQPPAGQGVALGWRVSWENSKIHSATTWSGQFFSESSPVILTQWTLSSSTARGDVWESTLVGNDSFTKTAPTEQQIAHAQLHCRAPRLK | 0% | 95% |  |
| TM2 T78A: TM2 in which the 78th threonine was replaced with alanine; SEQ ID NO: 10 (protein, Synthetic TM2 T78A) MSDVQSSLTGTWYNELNSKMELTANKDGTLTGKYLSKVGDVYVPYPLSGRYNLQPPAGQGVALGWAVSWENSKIHSAATWSGQFFSESSPVILTQWLLSSSTARGDVWESTLVGNDSFTKTAPTEQQIAHAQLHCRAPRLK | 95% | 95% |  |
| TM2 W108E: TM2 in which the 108th tryptophan was replaced with glutamic acid (protein) MSDVQSSLTGTWYNELNSKMELTANKDGTLTGKYLSKVGDVYVPYPLSGRYNLQPPAGQGVALGWAVSWENSKIHSATTWSGQFFSESSPVILTQWLLSSSTARGDVEESTLVGNDSFTKTAPTEQQIAHAQLHCRAPRLK | 95% | 95% |  |
| TM2 S36A-T78A-D116A: TM2 with 36th serine, 78th threonine and 116th aspartic acid replaced with alanine; SEQ ID NO: 8 (protein, Synthetic TM2 S36A-T78A-D116A) MSDVQSSLTGTWYNELNSKMELTANKDGTLTGKYLAKVGDVYVPYPLSGRYNLQPPAGQGVALGWAVSWENSKIHSAATWSGQFFSESSPVILTQWLLSSSTARGDVWESTLVGNASFTKTAPTEQQIAHAQLHCRAPRLK | 0% | 0% |  |
| TM2 A66R: TM2 in which the 66th alanine was replaced with arginine (protein) MSDVQSSLTGTWYNELNSKMELTANKDGTLTGKYLSKVGDVYVPYPLSGRYNLQPPAGQGVALGWRVSWENSKIHSATTWSGQFFSESSPVILTQWLLSSSTARGDVWESTLVGNDSFTKTAPTEQQIAHAQLHCRAPRLK | 0% | 95% |  |
| TM2 D116A: TM2 in which the 116th aspartic acid was replaced with alanine; SEQ ID NO: 12 (protein, Synthetic TM2 D116A) MSDVQSSLTGTWYNELNSKMELTANKDGTLTGKYLSKVGDVYVPYPLSGRYNLQPPAGQGVALGWAVSWENSKIHSATTWSGQFFSESSPVILTQWLLSSSTARGDVWESTLVGNASFTKTAPTEQQIAHAQLHCRAPRLK | 95% | 95% |  |
| TM2 A66R-L97T-V113R: TM2 with A66R, L97T and V113R replacements (protein) MSDVQSSLTGTWYNELNSKMELTANKDGTLTGKYLSKVGDVYVPYPLSGRYNLQPPAGQGVALGWRVSWENSKIHSATTWSGQFFSESSPVILTQWTLSSSTARGDVWESTLRGNDSFTKTAPTEQQIAHAQLHCRAPRLK | 0% | 95% |  |
